According to publication PMC6572798:
Results are given in words; binding and its absence hold for the method and conditions named. In cells and extracts the contact can be indirect. Binding calls can cover weak binding; strength is not graded here.

Protein sequences, listed by entry. Tags and fused reporters are not part of them. Lines headed by an entry give the natural chain unless they say otherwise; changes in a name come on top.
UniProt A6IA08: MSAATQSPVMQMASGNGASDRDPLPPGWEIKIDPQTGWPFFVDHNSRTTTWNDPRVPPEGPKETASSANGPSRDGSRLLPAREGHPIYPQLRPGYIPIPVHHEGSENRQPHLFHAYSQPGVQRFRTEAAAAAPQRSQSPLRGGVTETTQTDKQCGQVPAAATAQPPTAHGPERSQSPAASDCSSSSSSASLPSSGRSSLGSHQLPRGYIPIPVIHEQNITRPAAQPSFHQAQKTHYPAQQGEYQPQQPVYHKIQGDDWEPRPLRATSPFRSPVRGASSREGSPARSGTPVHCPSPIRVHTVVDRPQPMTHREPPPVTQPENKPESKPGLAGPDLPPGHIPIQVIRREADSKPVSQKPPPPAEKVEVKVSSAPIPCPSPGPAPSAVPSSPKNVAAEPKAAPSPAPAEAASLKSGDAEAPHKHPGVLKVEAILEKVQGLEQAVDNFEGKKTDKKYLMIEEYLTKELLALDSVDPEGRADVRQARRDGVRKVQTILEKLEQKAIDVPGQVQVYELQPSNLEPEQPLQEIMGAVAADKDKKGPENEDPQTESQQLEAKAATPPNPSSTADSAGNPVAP
UniProt P21707: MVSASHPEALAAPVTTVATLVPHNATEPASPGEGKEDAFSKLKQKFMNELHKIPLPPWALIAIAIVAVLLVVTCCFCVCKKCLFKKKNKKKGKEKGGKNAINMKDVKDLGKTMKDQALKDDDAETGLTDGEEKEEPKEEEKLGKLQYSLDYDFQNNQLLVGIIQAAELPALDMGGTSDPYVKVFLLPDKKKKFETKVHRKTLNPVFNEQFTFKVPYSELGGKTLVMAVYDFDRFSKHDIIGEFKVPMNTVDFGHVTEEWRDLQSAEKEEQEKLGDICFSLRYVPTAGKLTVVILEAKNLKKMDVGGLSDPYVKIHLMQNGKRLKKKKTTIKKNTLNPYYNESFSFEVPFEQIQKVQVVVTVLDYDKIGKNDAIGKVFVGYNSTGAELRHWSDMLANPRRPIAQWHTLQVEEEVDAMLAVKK

Experiments:
[1] = target: T1, ATG5 (rat (endogenous in primary neurons)) (UniProt Q3MQ06); assay: co-IP; endogenous proteins; precipitated with an antibody to one partner and blotted for the other (Fig. 4b BAG3 and LC3; Fig. 4d ATG5 antibody, probed for BAG3; Fig. 5b BAG3 antibody, probed for synaptotagmin 1); lysate and buffer not told
T1 sequence: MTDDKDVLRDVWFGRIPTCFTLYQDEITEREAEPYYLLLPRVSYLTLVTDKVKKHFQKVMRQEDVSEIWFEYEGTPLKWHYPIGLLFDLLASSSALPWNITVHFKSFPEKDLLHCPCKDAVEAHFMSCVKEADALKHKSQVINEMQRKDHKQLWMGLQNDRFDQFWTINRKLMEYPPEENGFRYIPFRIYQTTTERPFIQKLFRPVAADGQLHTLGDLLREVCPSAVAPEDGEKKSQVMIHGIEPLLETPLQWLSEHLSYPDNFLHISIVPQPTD

[2] = target: BAG3 (rat (endogenous in primary hippocampal and cortical neurons)) (UniProt A6IA08); assay: as above

Row | binding [1] | binding [2] | Substance
1 | binds | – | BAG3 (from UniProt A6IA08)
2 | – | binds | synaptotagmin 1 (from UniProt P21707 1-421)
